Structures were worked out from names or drawings and are uncertain.

Sequences of proteins named here, by UniProt entry; tags and fusion partners are left off. Residues count along the entry.
UniProt P20151, 25-261 limits assumed: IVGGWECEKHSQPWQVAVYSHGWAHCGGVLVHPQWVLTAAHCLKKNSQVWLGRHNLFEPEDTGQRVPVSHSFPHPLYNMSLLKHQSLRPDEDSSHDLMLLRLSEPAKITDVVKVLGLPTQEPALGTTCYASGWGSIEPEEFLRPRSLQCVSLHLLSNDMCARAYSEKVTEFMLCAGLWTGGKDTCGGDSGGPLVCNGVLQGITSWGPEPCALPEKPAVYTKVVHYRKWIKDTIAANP

This assay has as its target Recombinant KLK2 (Homo sapiens, UniProt P20151). Description: Hydrolysis of FRET peptides by recombinant KLK2 (kinetic parameters). Particulars: Table 3, FRET peptides derived from the IL-10R2 ectodomain. The text has this:
Obtained from a baculovirus-insect cell line system, purified, and activated as previously reported,[14] MUGB (4-methylumbelliferyl p-guanidino benzoate hydrochloride) was used for the spectrofluorimetric determination of molar concentrations of active KLK2.[15] KLK3 was obtained and assayed as previously reported.[3]
All of the FRET peptides were obtained by solid-phase peptide synthesis. The purity of FRET peptides to 95% or higher was obtained by semipreparative HPLC on a C18 reversed-phase column and used as protease substrates, as previously reported.[5] Details about the purification and quality of the FRET peptides are provided in the Supporting Information. The enzymatic kinetic measurements were all performed with FRET peptides as previously described.[5]
Five series of FRET peptides derived from Abz-KLRSSK-Q-EDDnp were assayed with KLK2 in 20 mM Tris–HCl, pH 8.0, and 1 M sodium citrate. The specificity of the S1 subsite was explored with the peptide series Abz-KLXSSK-Q-EDDnp, where X = amino acid R, A, N, D, F, G, Q, E, H, I, L, M, P, S, Y, T, V, or K. Only the peptide Abz-KLRSSKQ-EDDnp was hydrolyzed (kcat = 11.3 s^–1, Km = 6.5 μM, and kcat/Km = 1738 mM^–1 s^–1). The specificity of subsites S3, S2, S1’, and S2’ was explored by the FRET peptide series Abz-XLRSSKQ-EDDnp (for S3), Abz-KXRSSKQ-EDDnp (for S2), Abz-KLRXSKQ-EDDnp (for S1’), and Abz-KLRSXKQ-EDDnp (for S2’). All of them were hydrolyzed only at R–S or R–X peptide bonds, and the kinetic parameters for their hydrolysis by KLK2 are listed in Table 1.
What is called Km is the concentration of substrate that gives half-maximal velocity. For `CC(C)[C@H](NC(=O)[C@H](CCC(N)=O)NC(=O)c1ccccc1N)C(=O)N[C@@H](CCCNC(=N)N)C(=O)NCC(=O)N[C@@H](Cc1ccccc1)C(=O)N[C@@H](CCC(N)=O)C(=O)NCCNc1ccc([N+](=O)[O-])cc1[N+](=O)[O-]`, the Km worked out at 1.15 µM, the kcat was 0.77 s^–1 and the kcat/Km was 670 mM s–1.

Consider `CSCC[C@H](NC(=O)[C@H](CCCNC(=N)N)NC(=O)[C@@H](NC(=O)[C@H](CC(N)=O)NC(=O)c1ccccc1N)C(C)C)C(=O)N[C@@H](CC(N)=O)C(=O)N[C@@H](CCC(N)=O)C(=O)NCCNc1ccc([N+](=O)[O-])cc1[N+](=O)[O-]`, for which the Km came to 0.94 µM, the kcat was 1.28 s^–1 and the kcat/Km worked out at 1362 mM s–1.

Regarding `CC(C)C[C@H](NC(=O)[C@H](CC(N)=O)NC(=O)[C@H](CCCNC(=N)N)NC(=O)[C@H](CC(C)C)NC(=O)[C@@H](NC(=O)c1ccccc1N)C(C)C)C(=O)N[C@@H](CCC(N)=O)C(=O)NCCNc1ccc([N+](=O)[O-])cc1[N+](=O)[O-]`, the Michaelis-Menten constant (Km) was determined as 0.39 µM, the kcat came out at 1.61 s^–1 and the kcat/Km is given as 4 mM s–1.

For the compound `CSCC[C@H](NC(=O)[C@H](Cc1cnc[nH]1)NC(=O)c1ccccc1N)C(=O)N[C@@H](CCCNC(=N)N)C(=O)N[C@@H](Cc1ccccc1)C(=O)N[C@@H](CC(C)C)C(=O)N[C@@H](CCC(N)=O)C(=O)NCCNc1ccc([N+](=O)[O-])cc1[N+](=O)[O-]`, the Km is 0.51 µM, the kcat is reported as 0.51 s^–1 and the kcat/Km turned out to be 1000 mM s–1.
